# Test results: patent US20090042208A1, “Assays for erectile and bladder dysfunction and vascular health” (priority 2007, published 2009)
# “Also recorded” adds a separate entry of the source. At least one peptide structure holds a part that was inferred or is arguable (an end, a ring closure or a residue). Ends that are not written are not given here.
# Legend:
# [1] = tested on: retired breeder male Sprague-Dawley rats; test: ICP/BP and blood pressure after intracorporal injection of sialorphin; assay type: in vivo, rat
# Description: Experiments were carried out on 9- to 10-month-old retired breeder male Sprague-Dawley rats weighing more than 500 g (as described in Melman et al. 2005). When measurements were complete, animals were killed by placement within a CO2 gas chamber. All protocols were approved by the Animal Use Committee and Internal Review board at the Albert Einstein College of Medicine.
# The sialorphin peptide (2 mg) was dissolved in 0.5 ml of 0.01 N acetic acid and then was vortexed, and the solution was centrifuged for a few seconds at approximately 1000 g and 4° C. (to gather all the liquid at the bottom of the tube). The stock solution was stored in 25-μl aliquots (100 μg) at −70° C. Before use, the stock was thawed on ice, and phosphate buffered saline (pH 7.4) was added to bring the volume to 150 μl.
# Intracorporal microinjection of sialorphin into rat corporal tissue was modified from previously described procedures, where plasmids were injected intracorporeally to investigate their effect on the ICP/BP ratio (Christ et al. 1998, 2004; Melman et al. 2005). The modifications from the previously described protocols were used in anticipation that as a mature peptide product, there would be a direct effect by sialorphin (compared with the gene transfer studies where a plasmid gene would have to be transcribed, translated, and processed before exerting an effect). Also as a hormonal peptide mediator, the sialorphin would be very susceptible to proteases or peptidases, reducing the time for it to exert its physiological effect. Therefore, the time from administration to cavernous nerve stimulation was reduced (to less than 1.5 h after administration) and animals were used as their own control (i.e., measurements were taken before and after treatment). […] The changes in ICP and systemic BP were recorded at both levels of neurostimulation. […] Mean ICP/BP (n=7) and standard deviation were calculated before and after treatment. Significant change in the ICP/BP value from that of the pretreatment group was determined by Student's t test.
# [2] = tested on: isolated corporal smooth muscle tissue; test: Contractility (relaxation rate) of isolated corporal smooth muscle strips; design: species or system rat
# Description: Studies of contractility of isolated smooth muscle tissue were carried out as described previously (Chang et al. 2003, Spektor et al. 2002). Four longitudinal strips of cavernous tissue from the crura of old animals (n=4) were dissected free from the tunica albuginea and were suspended between two small surgical hooks in a tension-measuring device (Multimyograph Model 610M, Copenhagen, Denmark) that allows simultaneous monitoring of four muscle strips. Tissue was equilibrated for 90 min in 6 ml Krebs-Henseleit buffer composed of 110 mM NaCl, 4.8 mM. KCl, 2.5 mM CaCl2, 1.2 mM MgSO4, 1.2 mM KH2PO4, 25 mM NaHCO3, 11 mM glucose, and dextrose in glass-distilled water. Organ chambers were maintained at 37° C. and continuously bubbled with 95% O2 and 5% CO2 to maintain a mean pH of 7.4±0.1. Continuous recording of tension developed by the muscle strips was carried out using Powerlab software (Chart version 4.2.4, ADinstruments, CO) on a dedicated computer. Strips of corpus cavernosum first were precontracted with phenylephrine (10^−6 M). Then, relaxation was induced using CNP (10^−6 M). The change in the rate of relaxation after the addition of 1 μg/ml sialorphin was derived from the slope of the recording as the change in tension (g) over time (minutes) (as shown in FIG. 5). Results from four separate strips from four animals were averaged and the significance determined by the Student's t test.
substance,measurement,setting,value
"QHNPR [sialorphin, QHNPR]",Effect on erectile function (ICP/BP),"[1]; 10 μg intracorporal, n=3",no significant effect on erectile function
same,ICP/BP ratio,"[1]; 100 μg intracorporal, 4 mA stimulation, 55-65 min after administration",~0.6
same,Effect on erectile function (ICP/BP) versus pretreatment,"[1]; 100 μg intracorporal, 0.75 mA at 35-45 and 55-65 min, 4 mA at 55-65 min",time-dependent significant increase; also recorded: significant effect
same,Increase in relaxation rate compared with strips treated with carrier alone,[2]; sialorphin (10 μg/ml) added to 1 μM CNP,2.5 fold
same,Effect on the relaxation rate,[2]; sialorphin without CNP,no significant effect on the relaxation rate
same,Rate of Tension Loss,"[2]; strips precontracted with 1 μM phenylephrine, 1 μM CNP and/or 1 μg/ml sialorphin",0.072 g/min
